Results as given in paper PMC12618267, “GAGA zinc finger transcription factor searches chromatin by 1D–3D facilitated diffusion”.

How the values were obtained:
[1] = test system: Cy3-GAF-DBD / GAF-DBD (Drosophila melanogaster); assay: smFRET; conditions: 12.5 mM HEPES-KOH pH 7.6, 0.05 mM EDTA, 6.25 mM MgCl2, 5% glycerol, 50 mM NaCl, 50 ug/ml BSA, 0.05% NP-40, smFRET adds dextrose, Trolox, recombinant protein
[2] = test system: T1, GAF-ΔPOZ (Drosophila melanogaster); assay: EMSA; conditions: 0-20 nM protein, 3 nM DNA; 12.5 mM HEPES-KOH pH 7.6, 0.05 mM EDTA, 6.25 mM MgCl2, 5% glycerol, 50 mM NaCl, 50 ug/ml BSA, 0.05% NP-40; EMSA at room temperature; smFRET adds dextrose, Trolox; recombinant protein; protein details: SNAP, AF546; label: Cy5 at end
T1 sequence (looked up, limits assumed): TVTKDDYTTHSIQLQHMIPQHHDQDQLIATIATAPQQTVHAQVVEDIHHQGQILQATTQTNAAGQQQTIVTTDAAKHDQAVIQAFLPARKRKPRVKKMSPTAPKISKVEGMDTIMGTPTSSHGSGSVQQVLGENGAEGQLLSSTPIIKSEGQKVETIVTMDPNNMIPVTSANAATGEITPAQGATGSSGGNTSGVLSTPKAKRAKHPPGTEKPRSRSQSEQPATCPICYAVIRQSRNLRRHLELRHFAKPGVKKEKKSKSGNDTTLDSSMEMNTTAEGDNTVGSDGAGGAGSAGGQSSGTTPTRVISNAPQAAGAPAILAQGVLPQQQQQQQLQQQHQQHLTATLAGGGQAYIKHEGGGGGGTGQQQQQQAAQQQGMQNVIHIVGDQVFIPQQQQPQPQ

Sequence: TCATTTGTTTGGCAGAAAGAAAACTCTCAAAATTTCGTTGGCCGTTATAGCATATTCGTTTTGTCCAGCACTGTAATAGTACTATTGTTAACCCACAAGGTCGCACAGTAAACGGCACACTGTACGTGTTGCTTCGAGAGAGCGCGCCACCTGGTGTCGCGAAAAGAGCGCCGGAGTATAAATAGAG (double strand) [hsp70 Motif 2 Only 187 bp]
- binding result ([1]; site 2 FRET stable, mutated site 1 transient or undetectable, label: internal Cy7 and Cy5, biotin): binds

Sequence: TCATTTGTTTGGCAGAAAGAAAACTCTCAAAATTTCGTTGGCCGTTATAGCATATTCGTTTTGTGACTCTCCCTCTCTGTACTATTGTTAACCCACAAGGTCGCACAGTAAACGGCACACTGTACGTGTTGCTTCGAGAGAGCGCGCCACCTGGTGTCGCGAAAAGAGCGCCGGAGTATAAATAGAG (double strand) [hsp70 flipped 187 bp]
- binding result ([1]; overall dwell 3.6 s, label: internal Cy7 and Cy5, biotin): binds

Sequence: TCATTTGTTTGGCAGAAAGAAAACTCTCAAAATTTCGTTGGCCGTTATAGCATATTCGTTTTGTGAGAGAGGGAGAGAGTACTATTGTTAACCCACAAGGTCGCACAGTAAACGGCACACTGTACGTGTTGCTTCGAGAGAGCGCGCCACCTGGTGTCGCGAAAAGAGCGCCGGAGTATAAATAGAG (double strand) [hsp70 tandem 187 bp (site 1 + site 2)]
- binding result ([1]; 3 mM Mg2+, 3-fold longer nonspecific dwell, label: internal Cy7 and Cy5, biotin): binds
- binding result ([1]; 6.25 mM Mg2+, overall dwell 3.34 s, site 1 0.25 s, site 2 0.11 s, label: internal Cy7 and Cy5, biotin): binds

Sequence: GTTTTGTGAGTACGCGCTGTTGTACTATTGTTAACCCACAAGGTCGCACAGTAAACGGCACACTGTACGTGTTGCTTCTATACAGCGCGC (double strand) [Cy5-non-motif DNA 90 bp]
- binding result ([1]; 0.2 nM protein, dwell 0.33 s (9-fold shorter), binding frequency 16-fold lower than cognate, label: 5' biotin strand 1, internal Cy5 strand 2): binds more weakly

Sequence: GTGTCATTTGTTTGGCAGAAAGAAAACTCGAGAAATTTCTCTGGCCGTTATTCTCTATTCGTTTTGTGACTCTCCCTCTCTGTACTATTGCTCTCTCACTCTGTCGCACAGTAAACGGCACACTGTTCTCGTTGCTTCGAGAGAGCGCGCCTCGAA (double strand) [hsp70 NCP DNA (free, 3-N-6)]
- binding result [2]: binds

Construct, isoform or probe ends are uncertain for at least one entry. For part of these data: The comparison behind a weaker result is the experiment's own reference, which may not be listed here. For part of these data: At least one verdict rests on a figure or table, not on a statement of the authors. For part of these data: Tags and fusion partners may be left off the protein sequences shown.
